Experimental data: the supplement of paper PMC7661543
Differences between knockout arms are mostly noise.

Tested on: SKBR3
Assay: relative cell number vs DMSO control (72 h) (% of DMSO); higher = less growth inhibition (more cells)
Procedure: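 QMAP-Seq: a pool of 5 breast cancer cell lines (ZR-75-1, SKBR3, HCC-38, MDA-MB-231, BT-20), each carrying 12 doxycycline-inducible Cas9 sgRNA perturbations (11 knockouts plus non-targeting sgNT), was treated with compounds for 72 h at four 10-fold doses (10 nM-10 uM or 1 nM-1 uM range). Barcodes were amplified and sequenced, and cell number was interpolated from 293T spike-in standard curves. The result is expressed as % of the median of DMSO wells. Two biological replicates.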

Cc1ccc(C(=O)N(CCCN)[C@@H](c2oc3cc(Cl)ccc3c(=O)c2Cc2ccccc2)C(C)C)cc1
Details | relative cell number
sgRNA knockout: sgATF3, 10 nM | 14.8
sgRNA knockout: sgATF3, 100 nM | 12.5
sgRNA knockout: sgATF3, 1000 nM | 16.2
sgRNA knockout: sgATF3, 10000 nM | 2.95
sgRNA knockout: sgATF4, 10 nM | 14.3
sgRNA knockout: sgATF4, 100 nM | 11
sgRNA knockout: sgATF4, 1000 nM | 18.9
sgRNA knockout: sgATF4, 10000 nM | 4.9
sgRNA knockout: sgATF6, 10 nM | 11.1
sgRNA knockout: sgATF6, 100 nM | 8.92
sgRNA knockout: sgATF6, 1000 nM | 17.6
sgRNA knockout: sgATF6, 10000 nM | 5.11
sgRNA knockout: sgATG7, 10 nM | 16.2
sgRNA knockout: sgATG7, 100 nM | 12.8
sgRNA knockout: sgATG7, 1000 nM | 14.1
sgRNA knockout: sgATG7, 10000 nM | 5.35
sgRNA knockout: sgERN1, 10 nM | 9.57
sgRNA knockout: sgERN1, 100 nM | 7.6
sgRNA knockout: sgERN1, 1000 nM | 14.9
sgRNA knockout: sgERN1, 10000 nM | 10.7
sgRNA knockout: sgHSF1, 10 nM | 13.6
sgRNA knockout: sgHSF1, 100 nM | 9.38
sgRNA knockout: sgHSF1, 1000 nM | 15.4
sgRNA knockout: sgHSF1, 10000 nM | 4.73
sgRNA knockout: sgHSF2, 10 nM | 15.5
sgRNA knockout: sgHSF2, 100 nM | 9.95
sgRNA knockout: sgHSF2, 1000 nM | 18.8
sgRNA knockout: sgHSF2, 10000 nM | 7.54
sgRNA knockout: sgKEAP1, 10 nM | 12.2
sgRNA knockout: sgKEAP1, 100 nM | 9.18
sgRNA knockout: sgKEAP1, 1000 nM | 14
sgRNA knockout: sgKEAP1, 10000 nM | 6.03
sgRNA knockout: sgNFE2L2, 10 nM | 11.9
sgRNA knockout: sgNFE2L2, 100 nM | 13.6
sgRNA knockout: sgNFE2L2, 1000 nM | 14.8
sgRNA knockout: sgNFE2L2, 10000 nM | 5.6
sgRNA knockout: sgSLC35F2, 10 nM | 15.2
sgRNA knockout: sgSLC35F2, 100 nM | 8.92
sgRNA knockout: sgSLC35F2, 1000 nM | 23.4
sgRNA knockout: sgSLC35F2, 10000 nM | 5.24
sgRNA knockout: sgXBP1, 10 nM | 11.6
sgRNA knockout: sgXBP1, 100 nM | 12.2
sgRNA knockout: sgXBP1, 1000 nM | 15.2
sgRNA knockout: sgXBP1, 10000 nM | 5.27

Cc1ccc(S(=O)(=O)OCC(=O)Nc2ccc(C(=O)O)c(O)c2)cc1
Details | relative cell number
sgRNA knockout: sgATF3, 10 nM | 102
sgRNA knockout: sgATF3, 100 nM | 78.3
sgRNA knockout: sgATF3, 1000 nM | 104
sgRNA knockout: sgATF3, 10000 nM | 106
sgRNA knockout: sgATF4, 10 nM | 96.3
sgRNA knockout: sgATF4, 100 nM | 88.8
sgRNA knockout: sgATF4, 1000 nM | 86.5
sgRNA knockout: sgATF4, 10000 nM | 91.6
sgRNA knockout: sgATF6, 10 nM | 99.7
sgRNA knockout: sgATF6, 100 nM | 92.8
sgRNA knockout: sgATF6, 1000 nM | 84.4
sgRNA knockout: sgATF6, 10000 nM | 100
sgRNA knockout: sgATG7, 10 nM | 87.3
sgRNA knockout: sgATG7, 100 nM | 103
sgRNA knockout: sgATG7, 1000 nM | 80.7
sgRNA knockout: sgATG7, 10000 nM | 95.8
sgRNA knockout: sgERN1, 10 nM | 102
sgRNA knockout: sgERN1, 100 nM | 81.6
sgRNA knockout: sgERN1, 1000 nM | 83.4
sgRNA knockout: sgERN1, 10000 nM | 85.1
sgRNA knockout: sgHSF1, 10 nM | 65.5
sgRNA knockout: sgHSF1, 100 nM | 86.8
sgRNA knockout: sgHSF1, 1000 nM | 91.8
sgRNA knockout: sgHSF1, 10000 nM | 87.8
sgRNA knockout: sgHSF2, 10 nM | 102
sgRNA knockout: sgHSF2, 100 nM | 93.9
sgRNA knockout: sgHSF2, 1000 nM | 89.9
sgRNA knockout: sgHSF2, 10000 nM | 99.9
sgRNA knockout: sgKEAP1, 10 nM | 87.4
sgRNA knockout: sgKEAP1, 100 nM | 72.8
sgRNA knockout: sgKEAP1, 1000 nM | 85.3
sgRNA knockout: sgKEAP1, 10000 nM | 95.2
sgRNA knockout: sgNFE2L2, 10 nM | 90.1
sgRNA knockout: sgNFE2L2, 100 nM | 110
sgRNA knockout: sgNFE2L2, 1000 nM | 101
sgRNA knockout: sgNFE2L2, 10000 nM | 84
sgRNA knockout: sgSLC35F2, 10 nM | 89.3
sgRNA knockout: sgSLC35F2, 100 nM | 100
sgRNA knockout: sgSLC35F2, 1000 nM | 103
sgRNA knockout: sgSLC35F2, 10000 nM | 84.8
sgRNA knockout: sgXBP1, 10 nM | 115
sgRNA knockout: sgXBP1, 100 nM | 88.4
sgRNA knockout: sgXBP1, 1000 nM | 87.6
sgRNA knockout: sgXBP1, 10000 nM | 117

Cc1nc(Nc2n[nH]c3c2CN(C(=O)N[C@H](CN(C)C)c2ccccc2)C3(C)C)c2sccc2n1
Details | relative cell number
sgRNA knockout: sgATF3, 10 nM | 67.7
sgRNA knockout: sgATF3, 100 nM | 59.6
sgRNA knockout: sgATF3, 1000 nM | 32.6
sgRNA knockout: sgATF3, 10000 nM | 4.88
sgRNA knockout: sgATF4, 10 nM | 56.6
sgRNA knockout: sgATF4, 100 nM | 43
sgRNA knockout: sgATF4, 1000 nM | 23.1
sgRNA knockout: sgATF4, 10000 nM | 3.43
sgRNA knockout: sgATF6, 10 nM | 64.5
sgRNA knockout: sgATF6, 100 nM | 48.5
sgRNA knockout: sgATF6, 1000 nM | 19.4
sgRNA knockout: sgATF6, 10000 nM | 3.71
sgRNA knockout: sgATG7, 10 nM | 53.1
sgRNA knockout: sgATG7, 100 nM | 59.3
sgRNA knockout: sgATG7, 1000 nM | 28
sgRNA knockout: sgATG7, 10000 nM | 2.99
sgRNA knockout: sgERN1, 10 nM | 67.3
sgRNA knockout: sgERN1, 100 nM | 44.03
sgRNA knockout: sgERN1, 1000 nM | 23.4
sgRNA knockout: sgERN1, 10000 nM | 2.8
sgRNA knockout: sgHSF1, 10 nM | 61.2
sgRNA knockout: sgHSF1, 100 nM | 37
sgRNA knockout: sgHSF1, 1000 nM | 26
sgRNA knockout: sgHSF1, 10000 nM | 5.67
sgRNA knockout: sgHSF2, 10 nM | 65.2
sgRNA knockout: sgHSF2, 100 nM | 57.2
sgRNA knockout: sgHSF2, 1000 nM | 25.2
sgRNA knockout: sgHSF2, 10000 nM | 3.22
sgRNA knockout: sgKEAP1, 10 nM | 56.5
sgRNA knockout: sgKEAP1, 100 nM | 44.58
sgRNA knockout: sgKEAP1, 1000 nM | 20.5
sgRNA knockout: sgKEAP1, 10000 nM | 3.93
sgRNA knockout: sgNFE2L2, 10 nM | 59.9
sgRNA knockout: sgNFE2L2, 100 nM | 50.2
sgRNA knockout: sgNFE2L2, 1000 nM | 22.3
sgRNA knockout: sgNFE2L2, 10000 nM | 3.36
sgRNA knockout: sgSLC35F2, 10 nM | 61.5
sgRNA knockout: sgSLC35F2, 100 nM | 54.398
sgRNA knockout: sgSLC35F2, 1000 nM | 18.7
sgRNA knockout: sgSLC35F2, 10000 nM | 4.98
sgRNA knockout: sgXBP1, 10 nM | 52
sgRNA knockout: sgXBP1, 100 nM | 51
sgRNA knockout: sgXBP1, 1000 nM | 22.4
sgRNA knockout: sgXBP1, 10000 nM | 2.05
